# Assay results taken from doi:10.1101/2022.05.24.493251.
# Amino acid sequences for entries named in this document (tags omitted). A change or cut given only in a name is not applied to a line headed by its entry.
# UniProt Q01560: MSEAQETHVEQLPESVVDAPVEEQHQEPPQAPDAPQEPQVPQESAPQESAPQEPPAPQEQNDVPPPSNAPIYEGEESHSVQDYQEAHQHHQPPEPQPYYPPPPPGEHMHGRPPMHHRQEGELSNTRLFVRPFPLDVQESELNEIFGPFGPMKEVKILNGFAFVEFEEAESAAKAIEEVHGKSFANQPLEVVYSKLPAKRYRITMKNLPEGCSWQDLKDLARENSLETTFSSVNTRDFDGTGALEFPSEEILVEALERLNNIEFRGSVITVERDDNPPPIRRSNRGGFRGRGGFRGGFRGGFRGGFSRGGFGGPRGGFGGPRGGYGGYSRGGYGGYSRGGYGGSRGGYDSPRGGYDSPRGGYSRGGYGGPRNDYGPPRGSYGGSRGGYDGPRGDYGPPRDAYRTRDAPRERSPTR
# Numbering of substitutions follows the chain as printed. For at least one entry, the source does not settle the construct or the ends of the probe. Weaker means in comparison with the reference protein, sequence or condition of that experiment. At least one verdict rests on a figure or table, not on a statement of the authors. Where a protein sequence is shown, tags need not be part of it.
# Legend:
# Assay in all cases: NMR titration
# [1] = target: T1, Npl3 RRM1 F128A (Saccharomyces cerevisiae) (UniProt Q01560); settings: 40 C, RRM1 buffer; residues 114-201
# T1 sequence (looked up): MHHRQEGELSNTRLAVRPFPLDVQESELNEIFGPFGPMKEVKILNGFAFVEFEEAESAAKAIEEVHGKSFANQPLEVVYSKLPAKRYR
# [2] = target: T2, Npl3 RRM2 Q214A K217A (Saccharomyces cerevisiae) (UniProt Q01560); settings: 40 C, RRM2 buffer; residues 193-282
# T2 sequence (looked up): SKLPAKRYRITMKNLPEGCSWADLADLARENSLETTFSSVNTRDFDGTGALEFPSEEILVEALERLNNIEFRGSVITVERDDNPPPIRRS
# [3] = target: T3, Npl3 RRM2 K217A (Saccharomyces cerevisiae) (UniProt Q01560); settings: 40 C, RRM2 buffer; residues 193-282
# T3 sequence (looked up): T2 sequence (looked up) with A22Q
# [4] = target: T4, Npl3 RRM2 Q214A (Saccharomyces cerevisiae) (UniProt Q01560); settings: 40 C, RRM2 buffer; residues 193-282
# T4 sequence (looked up): T2 sequence (looked up) with A25K
sequence,measurement,setting,value
CCCCCC [polyC 6mer],binding result,[1],binds more weakly
AUGGUC,binding result,[2],binds more weakly
ATGGTC,binding result,[3],binds more weakly
same,binding result,[4],binds more weakly
